Experimental data: PubChem BioAssay AID1259267 (Sanger Institute, 2017)
Here is a random part of 794 reagents tested. 9 of them (1.1%) were called active. 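Viability capped at 1; calls reflect loss of viability from knock-down alone, not synergy with drugs.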 Reagent sequences are not shown. Not stated in the record: the amount of reagent, the time to read-out.

- Assay: 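Essential and drug-synergistic knock-downs in GP5D bowel cancer cells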 (primary screen)
- Cell system: human GP5D colorectal cancer cells
- Knock-down reagent: siRNA pool against human genes
- Challenge: anchor drugs at low dose: BYL719 1 µM, cetuximab 5 µg/ml, trametinib 10 nM, or DMSO vehicle
- Read-out: 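Viability against non-targeting pool, replicate mean: robust z-score for knock-down alone, fraction with DMSO, synergy with BYL719 1 µM, cetuximab 5 µg/ml, trametinib 10 nM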
- Scale: robust z-score, knock-down alone and viability with DMSO: higher = more viable cells; synergy score with trametinib and synergy score with BYL719 and synergy score with cetuximab: higher = stronger synthetic lethal synergy with drug
- Active means: 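a robust z-score below -3 for the knock-down by itself makes a gene active, i.e. essential alone; synergy scores are ignored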
- Calls: active = essential alone; inactive = not essential

target | robust z-score, knock-down alone | viability with DMSO (fraction of control) | synergy score with trametinib | synergy score with BYL719 | synergy score with cetuximab | Outcome
CDC73 (cell division cycle 73) | 0.0139 | 0.83 | 0.0223 | -0.273 | -0.117 | inactive
IGF1R (insulin like growth factor 1 receptor) | -0.91 | 0.634 | -0.357 | -0.387 | -0.359 | inactive
NTRK2 (neurotrophic receptor tyrosine kinase 2) | 0.817 | 1 | -0.133 | -0.254 | -0.142 | inactive
LMTK2 (lemur tail kinase 2) | -0.989 | 0.617 | 0.154 | -0.103 | -0.0728 | inactive
RSKR (ribosomal protein S6 kinase related) | 0.47 | 0.926 | -0.0256 | -0.02 | -0.032 | inactive
IP6K1 (inositol hexakisphosphate kinase 1) | 0.374 | 0.906 | -0.122 | -0.421 | -0.223 | inactive
ROS1 (ROS proto-oncogene 1, receptor tyrosine kinase) | 0.426 | 0.917 | -0.263 | -0.304 | -0.213 | inactive
RBKS (ribokinase) | 0.0238 | 0.832 | -0.198 | -0.16 | -0.286 | inactive
CLK1 (CDC like kinase 1) | -0.701 | 0.678 | -0.455 | -0.384 | -0.318 | inactive
ETNK2 (ethanolamine kinase 2) | -0.436 | 0.735 | 0.0998 | -0.0269 | 0.0249 | inactive
PIP4K2B (phosphatidylinositol-5-phosphate 4-kinase type 2 beta) | 0.422 | 0.916 | 0.136 | 0.0437 | -0.0521 | inactive
SPHK2 (sphingosine kinase 2) | -0.386 | 0.745 | 0.297 | 0.0311 | 0.269 | inactive
PIP5K1C (phosphatidylinositol-4-phosphate 5-kinase type 1 gamma) | -0.315 | 0.76 | -0.000411 | -0.246 | 0.0952 | inactive
PAK4 (p21 (RAC1) activated kinase 4) | 0.817 | 1 | -0.133 | -0.335 | -0.122 | inactive
RPS6KB2 (ribosomal protein S6 kinase B2) | -1.49 | 0.511 | 0.0379 | -0.136 | 0.0157 | inactive
PHKG1 (phosphorylase kinase catalytic subunit gamma 1) | -0.442 | 0.733 | -0.15 | -0.299 | -0.0808 | inactive
PIP4K2C (phosphatidylinositol-5-phosphate 4-kinase type 2 gamma) | 0.347 | 0.9 | 0.244 | 0.0934 | 0.154 | inactive
VRK3 (VRK serine/threonine kinase 3) | 0.817 | 1 | -0.138 | -0.134 | -0.142 | inactive
MERTK (MER proto-oncogene, tyrosine kinase) | -0.917 | 0.633 | -0.00565 | -0.183 | 0.0113 | inactive
MASTL (microtubule associated serine/threonine kinase like) | 0.265 | 0.883 | -0.0264 | -0.0207 | 0.143 | inactive
PPP2R1A (protein phosphatase 2 scaffold subunit Aalpha) | -1.92 | 0.419 | -0.141 | -0.321 | -0.26 | inactive
PGK1 (phosphoglycerate kinase 1) | -0.0936 | 0.807 | 0.0557 | -0.285 | -0.0582 | inactive
TSSK6 (testis specific serine kinase 6) | 0.519 | 0.937 | -0.0376 | -0.0557 | -0.00561 | inactive
STK33 (serine/threonine kinase 33) | 0.817 | 1 | 0.0257 | 0.0829 | 0.159 | inactive
CHD9 (chromodomain helicase DNA binding protein 9) | 0.817 | 1 | -0.0946 | -0.147 | -0.0551 | inactive
PI4KB (phosphatidylinositol 4-kinase beta) | 0.817 | 1 | 0.302 | -0.142 | -0.0841 | inactive
CAMK1 (calcium/calmodulin dependent protein kinase I) | -0.576 | 0.705 | -0.163 | -0.0511 | -0.0713 | inactive
LIMK2 (LIM domain kinase 2) | 0.817 | 1 | -0.0385 | -0.29 | -0.142 | inactive
PRP4K (pre-mRNA processing factor kinase PRP4K) | -0.89 | 0.638 | -0.163 | -0.325 | 0.0615 | inactive
CLSPN (claspin) | 0.221 | 0.874 | 0.254 | -0.158 | 0.0651 | inactive
TGFBR3 (transforming growth factor beta receptor 3) | 0.27 | 0.884 | -0.152 | -0.11 | -0.241 | inactive
RPS6KA5 (ribosomal protein S6 kinase A5) | -1.17 | 0.579 | -0.0411 | -0.109 | -0.251 | inactive
TRIO (trio Rho guanine nucleotide exchange factor) | -1.03 | 0.609 | 0.056 | -0.154 | -0.0705 | inactive
PINK1 (PTEN induced kinase 1) | 0.817 | 1 | 0.199 | 0.0081 | -0.0971 | inactive
CRIM1 (cysteine rich transmembrane BMP regulator 1) | -1.54 | 0.5 | 0.187 | -0.143 | -0.188 | inactive
EPHA10 (EPH receptor A10) | -0.749 | 0.668 | 0.146 | 0.0338 | 0.00959 | inactive
PIK3R2 (phosphoinositide-3-kinase regulatory subunit 2) | 0.817 | 1 | -0.117 | -0.13 | -0.142 | inactive
MAGI3 | -0.327 | 0.758 | -0.225 | -0.281 | -0.188 | inactive
FXN (frataxin) | 0.179 | 0.865 | -0.0161 | -0.135 | -0.241 | inactive
PANK3 (pantothenate kinase 3) | 0.817 | 1 | 0.0259 | -0.342 | -0.113 | inactive
GRK2 (G protein-coupled receptor kinase 2) | 0.663 | 0.967 | 0.429 | -0.0933 | 0.0351 | inactive
TYK2 (tyrosine kinase 2) | 0.646 | 0.964 | -0.0736 | -0.0186 | -0.0982 | inactive
TSSK3 (testis specific serine kinase 3) | 0.0342 | 0.834 | 0.185 | -0.157 | 0.172 | inactive
DCLK3 (doublecortin like kinase 3) | -0.224 | 0.779 | 0.0766 | -0.251 | -0.23 | inactive
GTF2H1 (general transcription factor IIH subunit 1) | -0.49 | 0.723 | -0.0913 | -0.0312 | -0.0273 | inactive
AAK1 (AP2 associated kinase 1) | 0.133 | 0.855 | 0.0311 | -0.13 | -0.179 | inactive
POMK (protein O-mannose kinase) | 0.817 | 1 | 0.0438 | -0.147 | -0.142 | inactive
STK25 (serine/threonine kinase 25) | 0.817 | 1 | -0.0497 | -0.0186 | -0.0196 | inactive
PRKAR2A | -0.993 | 0.616 | -0.284 | -0.236 | -0.17 | inactive
MAP3K20 (mitogen-activated protein kinase kinase kinase 20) | -0.789 | 0.66 | 0.0925 | -0.215 | -0.0915 | inactive
CHD4 (chromodomain helicase DNA binding protein 4) | -2.57 | 0.282 | 0.0722 | -0.0491 | 0.0466 | inactive
MAP3K11 (mitogen-activated protein kinase kinase kinase 11) | 0.817 | 1 | -0.0318 | 0.0111 | -0.142 | inactive
TNK1 (tyrosine kinase non receptor 1) | 0.729 | 0.981 | 0.0917 | -0.207 | -0.158 | inactive
SYK (spleen associated tyrosine kinase) | -1.6 | 0.487 | 0.0175 | -0.2 | -0.0455 | inactive
DCK (deoxycytidine kinase) | -2.98 | 0.196 | -0.0512 | -0.243 | -0.0113 | inactive
CDK13 (cyclin dependent kinase 13) | 0.817 | 1 | 0.045 | 0.0195 | -0.142 | inactive
ERN1 (endoplasmic reticulum to nucleus signaling 1) | -2.03 | 0.397 | -0.066 | -0.205 | -0.199 | inactive
IDH2 (isocitrate dehydrogenase (NADP(+)) 2) | 0.0549 | 0.838 | -0.281 | -0.29 | -0.138 | inactive
PRPS2 (phosphoribosyl pyrophosphate synthetase 2) | 0.265 | 0.883 | -0.145 | -0.161 | 0.0385 | inactive
ULK3 (unc-51 like kinase 3) | -0.596 | 0.701 | -0.0671 | -0.282 | -0.0714 | inactive
PRKCI (protein kinase C iota) | 0.817 | 1 | 0.0276 | -0.14 | -0.00314 | inactive
PRKAA1 (protein kinase AMP-activated catalytic subunit alpha 1) | 0.817 | 1 | 0.202 | -0.019 | -0.0679 | inactive
STK11 (serine/threonine kinase 11) | -1.76 | 0.455 | 0.209 | -0.118 | 0.0909 | inactive

Copied from above (9 entries):
target | robust z-score, knock-down alone | viability with DMSO (fraction of control) | synergy score with trametinib | synergy score with BYL719 | synergy score with cetuximab | Outcome
PINK1 (PTEN induced kinase 1) | 0.817 | 1 | 0.199 | 0.0081 | -0.0971 | inactive
CRIM1 (cysteine rich transmembrane BMP regulator 1) | -1.54 | 0.5 | 0.187 | -0.143 | -0.188 | inactive
EPHA10 (EPH receptor A10) | -0.749 | 0.668 | 0.146 | 0.0338 | 0.00959 | inactive
PIK3R2 (phosphoinositide-3-kinase regulatory subunit 2) | 0.817 | 1 | -0.117 | -0.13 | -0.142 | inactive
MAGI3 | -0.327 | 0.758 | -0.225 | -0.281 | -0.188 | inactive
FXN (frataxin) | 0.179 | 0.865 | -0.0161 | -0.135 | -0.241 | inactive
PANK3 (pantothenate kinase 3) | 0.817 | 1 | 0.0259 | -0.342 | -0.113 | inactive
GRK2 (G protein-coupled receptor kinase 2) | 0.663 | 0.967 | 0.429 | -0.0933 | 0.0351 | inactive
TYK2 (tyrosine kinase 2) | 0.646 | 0.964 | -0.0736 | -0.0186 | -0.0982 | inactive
